Out of some 53,000 sequences screened, about 3,700 (7%) were called active.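 The calls were made as follows: active = gene knockdowns whose robust z-score for IL-1 alpha signal is at least 2 or at most -2, so actives lie on both sides; inactive = the rest.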 Some of the results follow.
experiment: Components of the Cytosolic LPS Sensing Pathway: Gene Identification via Genome-wide siRNA Screen; conditions: RAW264.7 macrophages, IL-1a HTRF, actives lie on both sides, screened at 100 nM (by protocol), cells primed 5 h with Pam3CSK4 first;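 also: robust z of the log signal after scaling to non-targeting control siRNA wells of the plate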
How it was run: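 Mouse macrophage line RAW264.7 is transfected with siRNA (100 nM final), grown 48h, primed with TLR ligand Pam3CSK4 5 h and given intracellular LipidA 24 h. IL-1a in supernatant is read by HTRF and viability by luminescence.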

z-score, inactive:
GGGAAUCGGCCUGAAGAAATT against Arl6ip5 -0.404
GCUUUACCUCCUAUUAAUATT against Rgs9bp -0.91
GCUGUCAAACUGCCUCAACTT against Prss58 -0.798
CCCAAAUCGUAGCUGAUGATT against Cadps 0.449
GGUGAAGACAGAAUUUCCGTT against 1700128F08Rik -1.01
CCCAGUGAUUAAGGCUUUCTT against Slc25a38 1.27
GGAGAAAAAGUCUGAAAGATT against Helq -0.265
GGAGGUAGAAUGUUAUGUGTT against Gjd2 0.0864
CCAGUACAGAUGUGUUAAATT against N4bp2l2 1.68
GGUGUUUAUCGACAGGUACTT against Myo15 0.126
GGGAACUCCUUAUGAAUGGTT against Stau2 -0.597
GCUACACUAUUCUAGCAAATT against Cryzl1 0.339
CCUUAUUAGUGGAUCUAAATT against Steap3 0.835
GGAAGACAUCUGAAACGAUTT against Eef1akmt1 0.769
GGCUGCACCUGAAUUCCAATT against Lrrn1 -0.342
GGAGAAAAGUACCAAGAUGTT against Ifi27l2b -1.15
GCCGAUCAAGACAACUUCATT against Spaca7 0.0187
GGCCUUGGAAAUGAUAAGUTT against Scrn3 -1.73
GGCCUGUGCACACUUCUGUTT against Edn3 0.235
CCUUGUACCCAGUAAAGUCTT against Mab21l4 0.586
CUACGUGCUAGCUCAAGGATT against Mmp28 -1.1
GGCCAAAGAAGAAAUCCAATT against Pop4 1

2 neighbouring records already listed:
z-score, inactive:
GGAGAAAAAGUCUGAAAGATT against Helq -0.265
GGAGGUAGAAUGUUAUGUGTT against Gjd2 0.0864

Next part:

z-score, active:
GGUAUGUAACGGUAUUUAATT against Gja1 2.66
GGUUCUCCAAGGAAAGAGGTT against 2310002L09Rik 2.8
GCAGUUCCCAUAGUUUUCUTT against Il1r2 6.07
GGAUCUGAUCCAGACUUCUTT against Ndrg1 2.05
GGUGCAGUUGAACUUCUACTT against Dnajc1 2.26
GCAGUUGUCAUGCUAAACCTT against Ptpn2 2.89
GGCCAGAAGAUUCCUAAAGTT against Gulp1 3.38
GGGUUUCAUUAAAUUUCCUTT against Cyp2g1 -2.06

Source: PubChem BioAssay AID1508600 (Functional Genomics Laboratory (NCATS/FGL), 2020)
